Data reported in US9107894B2, “Formulation to improve gastrointestinal function” (University of Florida Research Foundation, Inc., priority 2007, dated 2015).
For at least one compound, name, drawing or mass did not settle the structure.

Legend:
Type in all cases: cell-based, human
H4 cells = assay: TNFα-induced IL-8 production in H4 cells; details: H4, 24 h pretreatment, TNF-α 1 μg/L for 24 h
Procedure: EPA and DHA were used as n-3 PUFA and linoleic acid (LA, 18:2 n-6) as n-6 PUFA. The H4 and Caco-2 cells were pretreated with different doses of EPA, DHA and LA separately and in different combinations for 24 hours. Then TNF-α (1 μg/L for H4, 50 μg/L for Caco-2 cells) was added to cell culture medium and the cells were incubated for another 24 hours. The lower dose used in the H4 cell line reflects their exquisite sensitivity to inflammatory stimuli.
The effects of different doses of fatty acids on TNFα-induced IL-8 production were evaluated and are seen in FIGS. 2A-B.

Caco-2 cells [1] = assay: Transepithelial resistance of early confluent Caco-2 cells; details: after 24 hours of treatment
Caco-2 cells [2] = assay: TNFα-induced IL-8 production in Caco-2 cells; details: Caco-2, 24 h pretreatment, TNF-α 50 μg/L for 24 h

| SMILES | effect on TNF-α induced IL-8 production (H4 cells) | transepithelial resistance (Caco-2 cells [1]) | effect on TNF-α induced IL-8 production (Caco-2 cells [2]) |
| --- | --- | --- | --- |
| CC/C=C\C/C=C\C/C=C\C/C=C\C/C=C\CCCC(=O)O [EPA, eicosapentaenoic acid] | greater inflammatory effects on IL-8 production in H4 than in Caco-2 cells | – | – |
| CCCC(=O)O [butyrate] | – | profound increase | – |
| CC/C=C\C/C=C\C/C=C\C/C=C\C/C=C\C/C=C\CCC(=O)O [DHA, docosahexaenoic acid] | did not aggravate the TNF-α induced IL-8 production | – | anti-inflammatory effect |
